From ChEMBL document CHEMBL3988442, “University of Dundee, Small-Polar-MMV Screening Library” (2021).

Sequences of proteins named here, by UniProt entry; tags and fusion partners are left off.
UniProt E9BF75, entry or part of it: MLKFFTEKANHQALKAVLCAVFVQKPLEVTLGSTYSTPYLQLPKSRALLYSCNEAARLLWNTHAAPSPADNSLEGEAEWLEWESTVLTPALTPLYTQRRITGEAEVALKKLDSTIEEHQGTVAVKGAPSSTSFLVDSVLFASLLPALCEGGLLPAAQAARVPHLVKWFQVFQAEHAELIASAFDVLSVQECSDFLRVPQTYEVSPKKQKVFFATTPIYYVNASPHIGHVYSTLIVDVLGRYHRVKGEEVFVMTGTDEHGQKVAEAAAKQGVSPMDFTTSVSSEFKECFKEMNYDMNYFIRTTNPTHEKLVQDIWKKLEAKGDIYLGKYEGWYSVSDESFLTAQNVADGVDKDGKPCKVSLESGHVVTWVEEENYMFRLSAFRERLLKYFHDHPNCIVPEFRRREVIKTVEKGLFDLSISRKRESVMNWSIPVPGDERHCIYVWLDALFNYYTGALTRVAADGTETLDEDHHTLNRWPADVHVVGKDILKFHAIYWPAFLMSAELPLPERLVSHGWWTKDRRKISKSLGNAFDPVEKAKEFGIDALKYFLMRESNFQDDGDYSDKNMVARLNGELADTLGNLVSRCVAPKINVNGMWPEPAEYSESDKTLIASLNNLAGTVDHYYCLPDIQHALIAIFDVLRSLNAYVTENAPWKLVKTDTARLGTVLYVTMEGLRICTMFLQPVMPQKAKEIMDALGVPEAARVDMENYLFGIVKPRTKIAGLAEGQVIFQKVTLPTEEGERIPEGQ

All values are in %.
How 0% and 100% were set is not recorded. Most values in the screen are low, and negative values occur.
The compounds are a random part of those screened.

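Primary screen of methionyl-tRNA synthetase; the read-out is not stated. Target: Methionyl-tRNA synthetase (putative), Leishmania donovani (UniProt E9BF75). The test concentration is not given. The values are filed as inhibition. Size under these conditions: about 68,000 compounds, about 24 of them at 50% or above in at least one test.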

For FC(F)(F)Oc1ccc(-c2c[nH]c([C@@H]3COCCN3)n2)cc1 the result was 5.263%.
For CCS(=O)(=O)N1Cc2nccn2CC(Cn2cncn2)C1 (centres unmarked) the result was 14.75%.
For COCC1c2c(cnn2CC2CCOCC2)CCN1Cc1ccoc1 (centres unmarked) the result was 8.571%.
For CCNc1ncc(C(=O)NC2CCOCC2)cn1 the result was 10.42%.
For CC(OCC(F)(F)F)C(=O)N1CCCC1 (centres unmarked) the result was 5.988%.
For Cc1n[nH]cc1CNC(=O)Nc1cccc(OCC(F)(F)F)c1 the result was 13.04%.
For COc1ccc(CN2CCC3(CC2)C(C(=O)O)CC(=O)N3C)cc1Cl (centres unmarked) the result was 8.219%.
For CCn1cnnc1CNC(=O)NCC(C(C)C)N1CCOCC1 (centres unmarked) the result was 5.707%.
For COc1ccc(C(C)NC(=O)Nc2nccs2)cc1OC (centres unmarked) the result was 9.355%.
For CSc1ccc(CN2CCCC3(CNC(=O)c4ccccc4O3)C2)cc1 (centres unmarked) the result was 15.1%.
For COCCN(Cc1ccoc1)C(=O)c1c(F)cccc1F the result was 15.67%.
For CCc1nc(C2CCCN2c2ncc(C(F)(F)F)cc2Cl)no1 (centres unmarked) the result was 8.696%.
For COc1ccnc(N2CCN(C(=O)Cc3ccc(C)s3)CC2)n1 the result was 20.14%.
For O=C(c1cc2ccccc2o1)N1CCN(Cn2cc(Cl)cn2)CC1 the result was 0%.
For Cc1cc2[nH]c(CN3CCCCC3c3cccc(F)c3)cc(=O)n2n1 (centres unmarked) the result was 10.64%.
For CN(C)Cc1cc(-c2nccn2CCn2cccn2)ccc1O the result was 8.6%.
For O=C(c1ccno1)N1CCC2(CC1)C(=O)N(CC1CC1)c1ccccc12 the result was 1.684%.
For CC(C)CCC(=O)NC(C)c1nnc2n1CCCCC2 (centres unmarked) the result was 5.226%.
For Cc1cc(NCCO)nc2[nH]nc(N)c12 the result was 13.64%.
For CNC(=O)C1CN(C(=O)c2cccs2)CCN(S(C)(=O)=O)C1 (centres unmarked) the result was 9.688%.
For COCC(=O)N(C)Cc1ccc(Cl)c(Cl)c1 the result was 16.2%.
For CNC(=O)CN1CCO[C@H]2CN(CC3CCOC3)C[C@H]21 (some centres unmarked) the result was -4.261%.
For CC(C)(C)OC(=O)N1CCC(C(=O)NCc2ccccc2)C1 (centres unmarked) the result was 17.13%.
For CCc1n[nH]c(SCC(=O)N2C[C@@H]3CC[C@H](C2)N(CC=C(C)C)C3)n1 the result was 10.05%.
For CC(=O)NCc1nnn2c1CN(c1ncccn1)CCC2 the result was 9.384%.
For CC(C)(C)OC(=O)NCCNC(=O)c1ccc(-c2ccco2)[nH]c1=O the result was 8.896%.
For c1ccc(-c2noc(CN3CCOC(Cn4cccn4)C3)n2)nc1 (centres unmarked) the result was 9.184%.
For Cc1nccn1-c1ccc(NC(=O)C2CCCN2Cc2c[nH]cn2)cc1 (centres unmarked) the result was 4.872%.
For Cc1ccc(-c2nc(CN3CCc4c(ncn4C)C3)cs2)o1 the result was 17.79%.
For COCc1ccccc1NCc1csc(NC(C)=O)n1 the result was -8.924%.
For O=S(=O)(C1CC1)N1CCc2ncc(Cn3cncn3)n2CC1 the result was 11.5%.
For CC(C)c1nn(C)cc1CNCc1ccnc(N(C)C)c1 the result was 15.92%.
For c1ccc(Cc2noc(-c3ccc(NCC4COCCO4)nc3)n2)cc1 (centres unmarked) the result was 17.14%.
For c1cnc(N2CC3(CCN(C4CCOCC4)CC3)c3ccccc32)nc1 the result was 7.246%.
For O=C(COCCOc1ccccc1)Nc1ccnn1CC1CCOC1 (centres unmarked) the result was 3.662%.
For COC(=O)c1ccc2ccn(CC3CCCO3)c(=O)c2c1 (centres unmarked) the result was 14.29%.
For c1nc2n(c1CN1CCCC1)CCN(C1CCOCC1)CC2 the result was 8.667%.
For Cc1ccsc1C(=O)N1CCCn2c(nc(CN(C)C)cc2=O)C1 the result was 9.63%.
For CCc1nnc2n1CCN(C(=O)C(C)Oc1ccc(C#N)cc1)C2 (centres unmarked) the result was 10.3%.
For N#Cc1ccc(CN2CCCC3(Cc4ccccc4CNC3=O)C2)cc1 (centres unmarked) the result was 6.857%.
For Cc1cc(C(F)(F)F)cc(N2CCC3(CCC(=O)N(CCO)C3)CC2)n1 the result was 8.462%.
For Cc1nc(N(C)C)ncc1C(=O)NCCc1csc(-c2cnccn2)n1 the result was 5.842%.
For O=C(C1CCC2(CCN(CC3CC3)CC2)O1)N1CCCC1 (centres unmarked) the result was 8.889%.
For CCN1CCN(C(=O)c2cc(-c3cccs3)cs2)CC1 the result was 9.915%.
For O=S(=O)(CCNCc1ccc2c(c1)CCO2)N1CCOCC1 the result was 4.71%.
For CS(=O)(=O)N1CC[C@H](c2nc3ccc(C(F)(F)F)cc3[nH]2)C1 the result was -1.648%.
For O=C(c1ccsc1)N1CCO[C@@H]2CN(Cc3ccco3)CC[C@@H]2C1 the result was 15.5%.
For Cc1nc(COC[C@@H]2CCC[C@@]23CN(C)CCO3)cs1 the result was 8.667%.
For CN(C)c1nc2c(c(=O)[nH]1)CCN(C(=O)C1CCCO1)C2 (centres unmarked) the result was 13.24%.
For CC(=O)c1ccc(NC(=O)C(C)Cn2cc(Br)cn2)cc1 (centres unmarked) the result was 15.11%.
For CCOC[C@@H]1CC[C@H]2[C@H](CCN2S(=O)(=O)c2ccc(F)cc2)O1 the result was 1.25%.
For N#CCCN(CCC#N)C(=O)CN1CCCC1Cc1cccc(F)c1 (centres unmarked) the result was 10.48%.
For COCCCN1C(=O)CC[C@H]2CN(c3cnc4ccccc4n3)CC[C@H]21 the result was -5.025%.
For CN(C)CCN1CCN(C(=O)c2ccn(C)c(=O)c2)CC1 the result was 7.736%.
For c1ccc(CN2CCC(CCNc3ncnc4c3CCNCC4)C2)cc1 (centres unmarked) the result was 42.06%.
For O=C(c1cc(=O)[nH]c(=O)[nH]1)N1CCCCC1c1nc2cc(F)ccc2[nH]1 (centres unmarked) the result was 15.93%.